Among all 340,000 compounds or so, about 170 (0.05%) were called active. This list was built around the results that the source calls inconclusive (neither active nor inactive); the mix of calls is not that of the screen. Calls come from the whole dose curve; as a rule, active = well fitted inhibition curve with a large enough effect in the signal ratio, with a control signal flat (not every such curve was filed as active); inconclusive = small, poorly fitted or top-dose-only effect, or effect the other way, or a change in a side signal; inactive = flat fitted curve, though single readings scatter; the % refers to the signal ratio. Where the call is inconclusive, the potency comes from a doubtful curve fit.
experiment: qHTS Assay to Find Inhibitors of Chronic Active B-Cell Receptor Signaling; settings: ABC-DLBCL IkBa-CBG/CBR reporter, luminescence ratio (green luciferase fused to IkBa over red control in TMD8 lymphoma cells), 4 h; activity change, negative = inhibition: at 46.1 µM (top of the series);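 for activity change, negative = inhibition: plate controls were basal doxycycline-induced cells for no effect and cells given 10 µM MG132 for full effect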
Outline: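 Cell line TMD8 (human ABC DLBCL), stably expressing tet-inducible CBG68-IkBa fusion and CBR; IMDM/0.5% FBS; cpd up to 46 uM; dox induction, 4 h, 37C/5% CO2; dual luminescence; green/red ratio; MG132 control.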
Potency is the fitted concentration of half-maximal effect.

Structure (SMILES)	Potency	activity change, negative = inhibition
O=Cc1ccccc1OCCCOc1cccc2cccnc12	inconclusive: 20 µM [falling, single point]	–
COc1cccc(C(=O)Nc2cc(C)c3c(=O)oc4ccccc4c3n2)c1	–	inconclusive: -7.02%
CCCOC(=O)CCCCC1SCC(NC(=O)OC)C1NC(=O)OC (stereo not drawn)	–	inconclusive: 0.846%
Cc1ccc(Nc2nc(C)cc(C)n2)c(C(=O)O)c1	–	inactive: 4.21%
CSCCNC(=O)c1ccc(C(C)(C)C)cc1	–	inconclusive: -1.29%
CCCCCOc1ccc(C(C)(O)C(CN2CCOCC2)c2ccccc2)cc1 (stereo not drawn)	–	inactive: -8.05%
CCOc1c(Cl)cc(/C=C/C(=O)N(CC)CC(=O)NCc2cccs2)cc1OC	–	inconclusive: 3.8%
O=C(Nc1ccc(Cl)cn1)c1ccc2ccccc2n1	–	inconclusive: 7.65%
O=C(Nc1cccc2cccnc12)c1cccc(N2C(=O)CCC2=O)c1	inconclusive: 22.4 µM [falling, single point]	–
COc1ccc(Br)cc1/C=N/NC(=O)c1nc(-c2ccccc2)n2c1CCCCC2	inconclusive: 0.651 µM [rising, partial curve, poor fit]	–
O=C1C(=O)N(CCS(=O)(=O)c2ccccc2)c2ccc(Cl)cc21	inconclusive: 35.5 µM [falling, single point]	–
NC(=O)Cc1ccc(C(=O)c2ccc(Cl)cc2)s1	–	inconclusive: -11.4%
CCOC(=O)C1CCC(CN(Cc2ccc(Cl)cc2)S(=O)(=O)c2ccc(Br)cc2)CC1 (stereo not drawn)	–	inactive: -0.0257%
CCOC(=O)c1c(NC(=O)COC(=O)CCOc2ccc(OCC)cc2)sc(C(=O)N(C)C)c1C	–	inconclusive: 14.5%
Cn1nnnc1SCCOc1ccc(C#N)cc1	–	inconclusive: 6.52%
CC1Sc2ccc(S(=O)(=O)CCC(=O)N(C)Cc3ccccc3)cc2NC1=O (stereo not drawn)	–	inconclusive: 3.65%
CCN(C[C@H]1N[C@@](C)(C(=O)OC)[C@H]2C(=O)N(C)C(=O)[C@@H]12)S(=O)(=O)c1ccc(OC)cc1	–	inactive: 0.0337%
OCC[C@@H]1C[C@H](O)[C@@H](O)[C@@]2(Cc3ccccc3O2)O1	–	inactive: -18.5%
Cc1ccc(/C=C/C(=O)Nc2nnc(SCc3ccc(C#N)cc3)s2)o1	–	inconclusive: 12.4%
O=C(Nc1ccc(Br)cn1)c1ccc([N+](=O)[O-])o1	–	inconclusive: -2.06%
CCOC(=O)c1cnn(-c2ccc([N+](=O)[O-])cc2)c1N	–	inconclusive: 11.2%
CCN1C(=O)C(=O)c2cc(C)ccc21	–	inactive: -0.202%
COc1ccc(C(=O)Nc2nc3ccccc3s2)cc1	inconclusive: 35.5 µM [rising, single point]	–
COc1ccc(-c2cc(C(F)F)nc(-n3nc(C)cc3C)n2)cc1	–	inconclusive: 10.2%
COc1ccccc1N1CCN(C(=O)CN(C)S(=O)(=O)c2ccc3c(c2)c(=O)n(C)c(=O)n3C)CC1	–	inactive: -1.74%
COc1ccc(-c2nc(-c3cccs3)c(-c3cccs3)[nH]2)cc1OC	inconclusive: 2.59 µM [falling, full curve, poor fit]	–

Structure (SMILES)	Potency	activity change, negative = inhibition
COc1ccc(CCNc2ncnc3c2cnn3-c2cccc(Cl)c2)cc1	inconclusive: 5.62 µM [rising, partial curve, poor fit]	–
CCN(CC)c1ccc(C(=O)Nn2c(C)nc3ccccc3c2=O)cc1	–	inconclusive: -0.576%
COc1ccccc1N1CCN(C(=O)c2cn(-c3ccccc3)nc2-c2cccnc2)CC1	–	inconclusive: 10.8%
Cc1cccc2cc(C3CC(c4ccco4)=NN3S(C)(=O)=O)c(Cl)nc12 (stereo not drawn)	–	inconclusive: -20.2%
CC1COc2ccccc2N1C(=O)c1cccnc1Cl (stereo not drawn)	–	inconclusive: -11.9%
O=C(Cc1cccs1)N/N=C/C=C/c1ccco1	–	inconclusive: -18.6%
N#CCSc1nc(N)c(C#N)c(C2CCCCC2)c1C#N	inconclusive: 2.82 µM [falling, full curve, poor fit]	–
CC1CCCC(NC(=O)c2cccc(N3CCCC3=O)c2)C1C (stereo not drawn)	inconclusive: 20 µM [falling, single point]	–
COCCNC(=O)C(=O)Nc1cccc(Br)c1	inconclusive: 1.3 µM [rising, partial curve, poor fit]	–
CC[C@]12c3[nH]c4cc(CCC(=O)N(C)C)ccc4c3CCN1C(=O)[C@@H](CC(=O)NCC13CC4CC(CC(C4)C1)C3)C[C@@H]2C(=O)N1CCN(C(=O)c2ccco2)CC1	inconclusive: 20.6 µM [falling, single point]	–
COCc1cc(C)nc(SCC(=O)Nc2ccccc2N2CCOCC2)c1C#N	–	inactive: 0.0736%
O=C(CCN1CCOCC1)NNC(=S)NC(=O)c1ccccc1	–	inactive: 0.0237%
CC(C)(C)C(=O)OC/C(N)=N/OC(=O)c1ccc(Cl)cc1	–	inactive: 13%
CCOc1ccc(Cn2nnc(C(=O)NCc3ccccc3)c2N)cc1	inconclusive: 18.4 µM [falling, single point]	–
O=C(Nc1cc(N2CCCCC2)ncn1)c1ccccc1	–	inconclusive: -3.65%
O=C(NCCO)C(=O)c1c(-c2ccccc2)cc2ccccn12	–	inactive: -5.26%
Cc1ccccc1-n1c(SCC(=O)N(C)C2CCS(=O)(=O)C2)nc2ccccc2c1=O (stereo not drawn)	–	inconclusive: -4.91%
CC(C)Cn1c(SC(C)C(=O)NC2CC2)nnc1-c1ccccc1F (stereo not drawn)	–	inconclusive: 2.13%
CCOC(=O)c1nnc2cc(-c3ccccc3)nn2c1C	–	inactive: 7.3%
COc1ccc(Cl)cc1NC(=O)C(=O)NCc1ccncc1	–	inactive: 1.03%
COC(=O)c1cc(-c2ccc(Cl)cc2)n[nH]1	–	inconclusive: 8.75%
COc1cccc(N2CCN(C(=O)c3ccc(-c4ccccc4)cc3)CC2)c1	inconclusive: 2.24 µM [rising, partial curve]	–
CCCCCCOC(=O)C(C#N)c1nc2ccccc2nc1N1CCN(C)CC1 (stereo not drawn)	inconclusive: 29.1 µM [falling, single point]	inconclusive: -8.57%
O=C(COc1ccccc1O)NNc1ccccc1	–	inconclusive: -21.9%
Cc1cccc(NC(=O)CSc2nnc(CNC(=O)c3ccco3)n2C)c1	–	inconclusive: -1.76%
CC(C)Sc1nnc(CNC(=O)C23CC4CC(CC(C4)C2)C3)n1Cc1ccccc1	inconclusive: 7.31 µM [rising, partial curve, poor fit]	–

As entered above:
activity change, negative = inhibition, CCCCCCOC(=O)C(C#N)c1nc2ccccc2nc1N1CCN(C)CC1 (stereo not drawn) is entered as inconclusive: -8.57%
activity change, negative = inhibition, Cc1cccc(NC(=O)CSc2nnc(CNC(=O)c3ccco3)n2C)c1 is entered as inconclusive: -1.76%
Potency, CC1CCCC(NC(=O)c2cccc(N3CCCC3=O)c2)C1C (stereo not drawn) is entered as inconclusive: 20 µM [falling, single point]
activity change, negative = inhibition, COc1ccccc1N1CCN(C(=O)c2cn(-c3ccccc3)nc2-c2cccnc2)CC1 is entered as inconclusive: 10.8%
